Results as given in article PMC3819369.
No constants are given. Whether binding was seen depends on the method and setting. In cells and extracts the contact can be indirect. Some results given as binding are weak or reduced against the parent protein; the word gives no strength. For part of these data: Sequences can lack the tags named with a protein. Values belong to the molecule of their own block, whether it stands above or below them.

Protein sequences, listed by entry. Tags and fused reporters are not part of them.
UniProt P49789: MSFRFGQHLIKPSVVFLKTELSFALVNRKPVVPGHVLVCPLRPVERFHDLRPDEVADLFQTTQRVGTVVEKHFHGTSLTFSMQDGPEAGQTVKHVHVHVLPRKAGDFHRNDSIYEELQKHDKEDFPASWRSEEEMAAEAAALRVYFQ

Tests used:
Annexin4-V5 = biological target: T1, Annexin4-V5 (UniProt P09525); test: co-IP; A549 cells transiently transfected with Annexin4-V5, 48 h, treated with DSP; total lysates immunoprecipitated with anti-V5 antibody on Sepharose beads overnight at 4°C; immunoblot with anti-Fhit and anti-Annexin 4
T1 sequence: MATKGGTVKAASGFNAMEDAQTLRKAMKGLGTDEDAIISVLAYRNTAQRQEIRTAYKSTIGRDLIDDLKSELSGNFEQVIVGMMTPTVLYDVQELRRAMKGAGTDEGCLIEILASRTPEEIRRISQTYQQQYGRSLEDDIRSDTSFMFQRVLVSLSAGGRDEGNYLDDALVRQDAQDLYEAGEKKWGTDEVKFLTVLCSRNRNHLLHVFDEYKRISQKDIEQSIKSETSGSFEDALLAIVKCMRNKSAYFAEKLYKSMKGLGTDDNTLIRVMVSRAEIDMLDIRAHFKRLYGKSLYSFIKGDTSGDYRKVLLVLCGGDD

[1] = biological target: Fhit-His6 recombinant protein (human) (UniProt P49789); test: co-IP; A549 cells infected with AdFHIT-wild type or AdFHIT-His6 at MOI50, 48 h, treated with DSP; total lysates enriched in membrane fraction (Mem-PER kit); 1 mg lysate with Ni-NTA agarose magnetic nickel beads overnight at 4°C; immunoblot with anti-Fhit and anti-Annexin A4
[2] = biological target: endogenous Fhit (HEK293) (human (endogenous in HEK293)) (UniProt P49789); test: co-IP; HEK293 cells mock treated or treated with paclitaxel (800 nM, 24 h); endogenous proteins, without DSP cross-linker; total lysates immunoprecipitated with Fhit antibody (IgG as control), immunoblot with Annexin 4 antiserum

- binding (Annexin4-V5): binds
Molecule: Fhit (detected in the anti-V5 immunoprecipitate from A549 cells, Figure 1B) (from UniProt P49789 1-147)

- binding [1]: binds
B1: Annexin IV (PP4-X) (protein, UniProt P09525 1-319)
chain: T1 sequence

- binding [2]: binds
B2: endogenous Annexin 4 (HEK293) (protein, UniProt P09525 1-319)
chain: T1 sequence
